From publication PMC5016092 come the findings set out here.

Protein sequences, listed by entry. Tags and fused reporters are not part of them. Lines headed by an entry give the natural chain unless they say otherwise; changes in a name come on top.
UniProt Q9BSF4: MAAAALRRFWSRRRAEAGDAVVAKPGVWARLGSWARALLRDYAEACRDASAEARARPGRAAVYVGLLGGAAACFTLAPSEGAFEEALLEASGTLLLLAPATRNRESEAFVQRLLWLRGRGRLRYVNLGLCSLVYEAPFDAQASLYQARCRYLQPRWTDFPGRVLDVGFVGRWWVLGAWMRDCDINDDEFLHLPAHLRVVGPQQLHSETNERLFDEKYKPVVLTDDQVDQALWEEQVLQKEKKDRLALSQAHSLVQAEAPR

Assay [1] concerns the target Tim29^3XFLAG (human) (UniProt Q9BSF4). Put plainly: affinity purification with mass spectrometry; 5 mg mitochondria of FLAG-tagged protein expressing or empty-vector cells solubilised in digitonin-containing buffer, diluted to 0.1% digitonin, anti-FLAG agarose 60 min 4°C, glycine pH 2.5 elution, label-free quantitative LC-MS/MS.
In assay [2] the target is T1, hTim10b^3XFLAG (human) (UniProt Q9Y5J6).
T1 sequence: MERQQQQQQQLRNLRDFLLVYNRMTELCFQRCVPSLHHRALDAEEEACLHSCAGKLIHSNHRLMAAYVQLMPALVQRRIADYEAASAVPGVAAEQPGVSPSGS
Described as above.

These are yes or no findings as the source states them, for the method shown. In cells and extracts the contact can be indirect. These calls come from enrichment with a bait or labelling near it, and not all partners need be listed. For some of these results: Where a sequence is shown, tags or fusion partners need not be part of it.

B1: hTim10b (protein, UniProt Q9Y5J6 1-103)
chain: MERQQQQQQQLRNLRDFLLVYNRMTELCFQRCVPSLHHRALDAEEEACLHSCAGKLIHSNHRLMAAYVQLMPALVQRRIADYEAASAVPGVAAEQPGVSPSGS
For the molecule B1, the binding entry in assay [1] is recorded as “binds”.

B2: hTim10a (protein, UniProt P62072 1-90)
chain: MDPLRAQQLAAELEVEMMADMYNRMTSACHRKCVPPHYKEAELSKGESVCLDRCVSKYLDIHERMGKKLTELSMQDEELMKRVQQSSGPA
Take B2: the binding result in assay [2] and in assay [1] was “binds” in each case.

B3: hTim22 (protein, UniProt Q9Y584 1-194)
chain: MAAAAPNAGGSAPETAGSAEAPLQYSLLLQYLVGDKRQPRLLEPGSLGGIPSPAKSEEQKMIEKAMESCAFKAALACVGGFVLGGAFGVFTAGIDTNVGFDPKDPYRTPTAKEVLKDMGQRGMSYAKNFAIVGAMFSCTECLIESYRGTSDWKNSVISGCITGGAIGFRAGLKAGAIGCGGFAAFSAAIDYYLR
Turning to B3, the binding result in assay [2] and in assay [1] was “binds” in each case.

B4: hTim9 (protein, UniProt Q9Y5J7 1-89)
chain: MAAQIPESDQIKQFKEFLGTYNKLTETCFLDCVKDFTTREVKPEETTCSEHCLQKYLKMTQRISMRFQEYHIQQNEALAAKAGLLGQPR
Turning to B4, the binding entry in assay [2] and in assay [1] was “binds” each time.
